US20260242455A1
Substitutions are numbered along the chain they refer to. Numbers in names are those of the source. Results are given in words; binding and its absence hold for the method and conditions named. A result given as binding can be weak or reduced; the word gives no strength. One block for each binder: values may come before it.

Sequences of proteins named here, by UniProt entry; tags and fusion partners are left off. A change or cut given only in a name is not applied to a line headed by its entry.
UniProt O14793: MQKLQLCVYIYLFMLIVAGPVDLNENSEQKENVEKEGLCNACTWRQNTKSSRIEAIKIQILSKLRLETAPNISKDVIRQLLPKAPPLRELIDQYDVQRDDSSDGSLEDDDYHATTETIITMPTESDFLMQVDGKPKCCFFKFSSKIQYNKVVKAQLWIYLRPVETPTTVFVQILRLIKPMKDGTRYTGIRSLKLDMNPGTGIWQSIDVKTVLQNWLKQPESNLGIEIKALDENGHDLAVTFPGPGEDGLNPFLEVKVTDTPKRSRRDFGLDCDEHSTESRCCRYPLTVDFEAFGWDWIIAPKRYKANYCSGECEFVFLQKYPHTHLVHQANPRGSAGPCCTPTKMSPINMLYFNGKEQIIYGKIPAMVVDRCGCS

Target: latent myostatin (latent GDF8), species not stated in the experiment (UniProt O14793)
Assay: Octet, compared with parental Ab1

- binding: binds
B1: Ab3 (affinity optimized, parental frameworks), IgG4 (S228P) (antibody, V domains shown)
VH: QIQLVQSGGGVVQPGRSLRLSCAASGFAFSSYGMHWVRQAPGKGLEWVAVISYDGSIKYYADSVKGRFTISRDNSKNTLYLQMNSLRAEDTAVYYCARDLLVRFLEWSHKYGMDVWGQGTTVTVSS
VL: QPVLTQPPSASGTPGQRVTISCSGSTSNIGSNTVHWYQQLPGTAPKLLIYSDDQRPSGVPDRFSGSKSGTSASLVISGLQSDDEADYYCAAWDESLNGVFGGGTKLTVL

- binding: binds
B2: Ab5 (affinity optimized, parental frameworks), IgG4 (S228P) (antibody, V domains shown)
VH: B1 VH with S56N, I57N
VL: B1 VL with T26S, S31G
